According to the supplement of paper PMC10849652:
This is one part of the list.

Chains of the proteins cited; added tags and fusions are not shown. Lines headed by an entry give the natural chain unless they say otherwise; changes in a name come on top.
UniProt A6NHQ2: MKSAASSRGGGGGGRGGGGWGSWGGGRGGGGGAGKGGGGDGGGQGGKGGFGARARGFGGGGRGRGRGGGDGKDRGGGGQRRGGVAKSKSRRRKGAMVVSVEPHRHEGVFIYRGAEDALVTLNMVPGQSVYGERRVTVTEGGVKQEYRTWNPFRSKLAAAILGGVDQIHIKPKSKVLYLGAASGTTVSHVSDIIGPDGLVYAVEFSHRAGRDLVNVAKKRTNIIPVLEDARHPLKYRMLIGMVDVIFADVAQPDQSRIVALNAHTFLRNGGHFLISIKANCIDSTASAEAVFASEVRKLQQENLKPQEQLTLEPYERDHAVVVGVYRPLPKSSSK
UniProt P14324: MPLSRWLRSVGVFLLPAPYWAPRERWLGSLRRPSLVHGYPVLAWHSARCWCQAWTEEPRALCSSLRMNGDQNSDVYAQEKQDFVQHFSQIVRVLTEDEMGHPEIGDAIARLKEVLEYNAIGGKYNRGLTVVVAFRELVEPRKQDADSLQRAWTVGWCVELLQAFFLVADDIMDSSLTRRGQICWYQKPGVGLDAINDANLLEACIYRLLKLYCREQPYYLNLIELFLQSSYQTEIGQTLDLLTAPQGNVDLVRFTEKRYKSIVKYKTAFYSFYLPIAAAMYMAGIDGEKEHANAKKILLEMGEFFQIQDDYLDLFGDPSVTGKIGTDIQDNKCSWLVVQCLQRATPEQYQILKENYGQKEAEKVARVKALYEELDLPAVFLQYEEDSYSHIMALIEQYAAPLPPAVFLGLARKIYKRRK
UniProt Q9HB96: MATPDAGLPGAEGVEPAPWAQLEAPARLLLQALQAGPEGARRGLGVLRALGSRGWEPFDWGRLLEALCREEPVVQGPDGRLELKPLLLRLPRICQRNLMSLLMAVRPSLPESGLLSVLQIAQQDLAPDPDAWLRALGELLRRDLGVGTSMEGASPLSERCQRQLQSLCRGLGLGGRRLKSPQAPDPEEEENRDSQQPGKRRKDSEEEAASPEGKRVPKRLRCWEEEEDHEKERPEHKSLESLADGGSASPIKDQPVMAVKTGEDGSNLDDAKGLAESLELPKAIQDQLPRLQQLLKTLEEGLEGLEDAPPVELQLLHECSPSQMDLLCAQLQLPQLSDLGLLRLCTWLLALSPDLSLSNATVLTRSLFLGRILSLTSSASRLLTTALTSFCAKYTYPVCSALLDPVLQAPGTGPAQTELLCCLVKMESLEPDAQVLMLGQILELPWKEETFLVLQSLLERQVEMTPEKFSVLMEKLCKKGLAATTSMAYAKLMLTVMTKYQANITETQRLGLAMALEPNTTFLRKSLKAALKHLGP
UniProt Q96SL8: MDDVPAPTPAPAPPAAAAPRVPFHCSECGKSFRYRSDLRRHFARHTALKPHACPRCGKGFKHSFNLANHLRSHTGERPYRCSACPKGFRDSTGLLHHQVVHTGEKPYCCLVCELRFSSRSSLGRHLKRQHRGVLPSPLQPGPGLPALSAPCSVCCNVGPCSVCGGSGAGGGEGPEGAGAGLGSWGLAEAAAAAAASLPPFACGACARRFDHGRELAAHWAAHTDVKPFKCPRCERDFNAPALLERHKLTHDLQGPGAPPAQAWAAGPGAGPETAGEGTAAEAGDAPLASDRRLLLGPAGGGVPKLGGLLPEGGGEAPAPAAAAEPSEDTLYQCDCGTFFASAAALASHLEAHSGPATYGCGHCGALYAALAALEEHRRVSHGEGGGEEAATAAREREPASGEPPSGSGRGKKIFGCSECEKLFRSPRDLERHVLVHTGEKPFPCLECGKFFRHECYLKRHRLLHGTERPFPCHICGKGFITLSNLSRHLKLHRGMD
UniProt Q96IG2: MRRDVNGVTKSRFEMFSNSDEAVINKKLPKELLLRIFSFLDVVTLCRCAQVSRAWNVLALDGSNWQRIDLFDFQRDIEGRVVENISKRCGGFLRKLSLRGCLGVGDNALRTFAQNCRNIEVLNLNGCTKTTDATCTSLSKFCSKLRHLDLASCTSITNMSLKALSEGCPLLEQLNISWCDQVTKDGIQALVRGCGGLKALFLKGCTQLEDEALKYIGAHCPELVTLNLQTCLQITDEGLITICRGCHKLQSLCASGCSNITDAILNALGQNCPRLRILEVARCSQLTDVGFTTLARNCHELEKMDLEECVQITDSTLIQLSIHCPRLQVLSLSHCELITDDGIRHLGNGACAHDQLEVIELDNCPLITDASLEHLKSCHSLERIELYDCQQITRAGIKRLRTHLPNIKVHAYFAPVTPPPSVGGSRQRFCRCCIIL
UniProt Q8IVF7, whole entry, looked up: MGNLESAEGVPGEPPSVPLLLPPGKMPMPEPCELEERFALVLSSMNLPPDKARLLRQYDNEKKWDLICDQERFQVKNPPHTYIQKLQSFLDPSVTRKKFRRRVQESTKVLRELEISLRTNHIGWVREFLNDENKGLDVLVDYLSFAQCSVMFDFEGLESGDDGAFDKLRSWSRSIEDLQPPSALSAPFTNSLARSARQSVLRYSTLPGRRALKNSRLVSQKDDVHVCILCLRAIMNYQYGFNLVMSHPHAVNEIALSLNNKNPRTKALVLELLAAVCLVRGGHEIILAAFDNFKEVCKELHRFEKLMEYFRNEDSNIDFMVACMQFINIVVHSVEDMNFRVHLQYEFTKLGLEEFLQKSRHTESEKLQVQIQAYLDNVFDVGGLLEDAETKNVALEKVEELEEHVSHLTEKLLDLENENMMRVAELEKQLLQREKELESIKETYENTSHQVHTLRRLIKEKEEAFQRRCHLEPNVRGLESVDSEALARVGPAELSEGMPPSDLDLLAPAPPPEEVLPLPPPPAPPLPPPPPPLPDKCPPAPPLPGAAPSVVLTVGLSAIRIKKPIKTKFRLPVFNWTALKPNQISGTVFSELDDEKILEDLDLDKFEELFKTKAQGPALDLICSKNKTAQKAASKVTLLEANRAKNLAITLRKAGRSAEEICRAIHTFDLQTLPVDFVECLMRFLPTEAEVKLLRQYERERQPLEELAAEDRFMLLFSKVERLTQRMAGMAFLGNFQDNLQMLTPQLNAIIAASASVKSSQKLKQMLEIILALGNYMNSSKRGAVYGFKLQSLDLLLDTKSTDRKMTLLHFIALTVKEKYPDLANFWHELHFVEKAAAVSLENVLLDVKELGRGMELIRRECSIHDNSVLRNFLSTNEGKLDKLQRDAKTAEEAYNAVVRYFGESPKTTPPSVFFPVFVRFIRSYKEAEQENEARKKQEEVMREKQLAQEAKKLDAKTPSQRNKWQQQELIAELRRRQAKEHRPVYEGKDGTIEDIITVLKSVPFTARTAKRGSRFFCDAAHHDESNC
UniProt Q0JRZ9: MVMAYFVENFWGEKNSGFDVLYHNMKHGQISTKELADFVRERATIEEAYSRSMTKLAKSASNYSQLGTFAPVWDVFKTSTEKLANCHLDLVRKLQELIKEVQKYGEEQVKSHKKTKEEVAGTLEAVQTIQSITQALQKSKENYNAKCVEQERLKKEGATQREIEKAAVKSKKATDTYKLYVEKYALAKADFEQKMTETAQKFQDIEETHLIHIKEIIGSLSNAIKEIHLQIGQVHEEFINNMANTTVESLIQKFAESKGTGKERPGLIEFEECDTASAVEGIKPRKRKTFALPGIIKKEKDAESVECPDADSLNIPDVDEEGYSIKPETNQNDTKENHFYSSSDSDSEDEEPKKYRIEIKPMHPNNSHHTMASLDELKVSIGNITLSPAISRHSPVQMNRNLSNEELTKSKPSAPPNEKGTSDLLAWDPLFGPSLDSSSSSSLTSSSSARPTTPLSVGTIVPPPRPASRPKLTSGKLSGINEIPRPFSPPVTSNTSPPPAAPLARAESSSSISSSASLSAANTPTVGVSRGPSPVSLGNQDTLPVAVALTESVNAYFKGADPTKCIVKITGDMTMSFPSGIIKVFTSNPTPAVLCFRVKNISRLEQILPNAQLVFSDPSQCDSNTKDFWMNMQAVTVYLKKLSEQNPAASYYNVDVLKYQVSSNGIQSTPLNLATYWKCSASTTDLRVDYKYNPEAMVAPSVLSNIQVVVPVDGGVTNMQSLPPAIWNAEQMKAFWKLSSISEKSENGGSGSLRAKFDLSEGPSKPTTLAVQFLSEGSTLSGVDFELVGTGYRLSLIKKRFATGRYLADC
UniProt Q9NSD9: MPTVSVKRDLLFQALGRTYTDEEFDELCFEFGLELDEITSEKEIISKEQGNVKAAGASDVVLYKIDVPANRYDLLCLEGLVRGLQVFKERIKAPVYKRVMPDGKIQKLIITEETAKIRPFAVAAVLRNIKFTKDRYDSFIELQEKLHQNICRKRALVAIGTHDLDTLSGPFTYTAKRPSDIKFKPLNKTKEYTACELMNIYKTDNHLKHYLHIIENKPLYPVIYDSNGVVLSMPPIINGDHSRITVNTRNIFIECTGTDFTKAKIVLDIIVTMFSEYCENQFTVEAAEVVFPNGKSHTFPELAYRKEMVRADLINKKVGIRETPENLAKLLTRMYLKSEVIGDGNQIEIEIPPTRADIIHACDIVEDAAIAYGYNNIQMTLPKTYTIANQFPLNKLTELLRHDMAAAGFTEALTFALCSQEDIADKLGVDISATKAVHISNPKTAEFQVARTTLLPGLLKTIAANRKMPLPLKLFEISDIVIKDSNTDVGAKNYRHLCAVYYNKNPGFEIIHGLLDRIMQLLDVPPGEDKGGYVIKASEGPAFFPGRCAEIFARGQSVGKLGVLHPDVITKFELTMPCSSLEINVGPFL
UniProt Q86XK2: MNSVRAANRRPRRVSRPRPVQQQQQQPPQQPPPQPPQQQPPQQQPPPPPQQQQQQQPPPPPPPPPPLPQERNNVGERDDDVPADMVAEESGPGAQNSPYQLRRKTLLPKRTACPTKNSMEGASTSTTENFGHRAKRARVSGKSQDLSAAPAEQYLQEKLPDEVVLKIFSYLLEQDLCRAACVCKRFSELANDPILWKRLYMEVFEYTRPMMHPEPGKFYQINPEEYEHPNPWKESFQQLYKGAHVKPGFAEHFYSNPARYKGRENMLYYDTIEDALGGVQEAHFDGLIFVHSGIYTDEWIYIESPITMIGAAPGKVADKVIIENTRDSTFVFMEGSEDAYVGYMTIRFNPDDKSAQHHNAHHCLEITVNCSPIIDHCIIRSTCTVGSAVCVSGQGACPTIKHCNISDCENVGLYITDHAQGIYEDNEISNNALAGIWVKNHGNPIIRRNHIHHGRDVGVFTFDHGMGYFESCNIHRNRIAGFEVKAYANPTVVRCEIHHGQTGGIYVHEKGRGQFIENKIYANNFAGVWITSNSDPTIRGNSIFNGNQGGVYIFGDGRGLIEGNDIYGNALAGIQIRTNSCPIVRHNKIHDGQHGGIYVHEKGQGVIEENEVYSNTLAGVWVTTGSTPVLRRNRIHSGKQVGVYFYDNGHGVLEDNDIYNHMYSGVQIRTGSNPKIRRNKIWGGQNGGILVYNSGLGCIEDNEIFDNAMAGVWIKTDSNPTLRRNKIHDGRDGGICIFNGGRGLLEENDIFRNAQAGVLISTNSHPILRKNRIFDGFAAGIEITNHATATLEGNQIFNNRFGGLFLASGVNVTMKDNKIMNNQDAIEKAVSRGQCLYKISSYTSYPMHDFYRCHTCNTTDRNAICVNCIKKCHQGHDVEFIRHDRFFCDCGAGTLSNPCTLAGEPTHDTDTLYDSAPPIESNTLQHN
UniProt Q13451: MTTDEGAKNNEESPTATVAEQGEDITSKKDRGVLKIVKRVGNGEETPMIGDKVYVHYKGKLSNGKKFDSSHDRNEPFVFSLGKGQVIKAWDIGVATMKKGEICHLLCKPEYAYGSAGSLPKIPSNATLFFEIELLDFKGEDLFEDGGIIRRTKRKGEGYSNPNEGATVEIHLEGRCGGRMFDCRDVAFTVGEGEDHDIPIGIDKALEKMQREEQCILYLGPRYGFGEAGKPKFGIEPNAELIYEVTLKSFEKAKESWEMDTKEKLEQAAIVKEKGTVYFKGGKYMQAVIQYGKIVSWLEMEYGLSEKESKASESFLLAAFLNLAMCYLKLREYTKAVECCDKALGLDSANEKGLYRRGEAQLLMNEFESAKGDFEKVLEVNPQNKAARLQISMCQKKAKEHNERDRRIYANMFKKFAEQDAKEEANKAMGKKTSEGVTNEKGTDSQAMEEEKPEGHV
UniProt Q8N6M3: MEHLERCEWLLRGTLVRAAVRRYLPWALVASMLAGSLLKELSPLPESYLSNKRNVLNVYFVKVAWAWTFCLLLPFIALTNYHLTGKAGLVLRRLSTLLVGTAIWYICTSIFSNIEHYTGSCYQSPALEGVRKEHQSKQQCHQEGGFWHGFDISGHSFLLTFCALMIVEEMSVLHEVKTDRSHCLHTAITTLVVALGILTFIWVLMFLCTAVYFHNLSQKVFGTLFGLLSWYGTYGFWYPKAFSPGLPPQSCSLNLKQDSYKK
UniProt Q9NRD1: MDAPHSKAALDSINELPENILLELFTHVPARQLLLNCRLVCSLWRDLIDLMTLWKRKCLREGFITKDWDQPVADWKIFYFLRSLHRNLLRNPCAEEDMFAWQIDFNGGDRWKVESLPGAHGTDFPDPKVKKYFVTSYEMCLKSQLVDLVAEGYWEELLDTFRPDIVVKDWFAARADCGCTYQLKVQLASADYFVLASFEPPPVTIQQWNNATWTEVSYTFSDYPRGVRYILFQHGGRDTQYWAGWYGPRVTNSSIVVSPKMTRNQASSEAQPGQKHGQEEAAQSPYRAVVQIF

How the values were obtained:
Test in all cases: log2 fold change, soluble protein after heating vs DMSO (PISA); higher = thermal stabilisation; K562 lysate, 10 uM; active = over 0.2 and 3.5 SD of the protein, either way, in both replicates (recomputed)
lapatinib = compound: CS(=O)(=O)CCNCc1ccc(-c2ccc3ncnc(Nc4ccc(OCc5cccc(F)c5)c(Cl)c4)c3c2)o1 [lapatinib]
Method in brief: (§1)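 To prepare the extract, K562 pellets were dounce-homogenised in PBS pH 7.4 with 1 mM MgCl2, giving crude material at 1 mg/mL protein. This was treated with 10 μM compound for 30 min, then heated in aliquots for 3 min over 48°C-58°C before pooling and addition of NP-40 to 0.5% at 4°C. Centrifugation at 21,000xg for 90 min left soluble protein in the supernatant, which TMTpro 16plex LC-MS/MS quantified with equalised channel sums. Results are log-two fold changes in thermal stability compared with solvent controls, from duplicates.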

pictilisib = compound: CS(=O)(=O)N1CCN(Cc2cc3nc(-c4cccc5[nH]ncc45)nc(N4CCOCC4)c3s2)CC1 [pictilisib]
Method in brief: as §1

crizotinib = compound: C[C@@H](Oc1cc(-c2cnn(C3CCNCC3)c2)cnc1N)c1c(Cl)ccc(F)c1Cl [crizotinib]
Method in brief: as §1

[1] = compound: C[C@H](C1=CC=C(C=C1)C(=O)NC2=C3C=CNC3=NC=C2)N
Method in brief: as §1

duvelisib = compound: C[C@H](Nc1ncnc2nc[nH]c12)c1cc2cccc(Cl)c2c(=O)n1-c1ccccc1 [duvelisib]
Method in brief: as §1

gandotinib = compound: Cc1cc(Nc2cc(CN3CCOCC3)c3nc(C)c(Cc4ccc(Cl)cc4F)n3n2)n[nH]1 [gandotinib]
Method in brief: as §1

tozasertib = compound: Cc1cc(Nc2cc(N3CCN(C)CC3)nc(Sc3ccc(NC(=O)C4CC4)cc3)n2)n[nH]1 [tozasertib]
Method in brief: as §1

doramapimod = compound: Cc1ccc(-n2nc(C(C)(C)C)cc2NC(=O)Nc2ccc(OCCN3CCOCC3)c3ccccc23)cc1 [doramapimod]
Method in brief: as §1

bafetinib = compound: Cc1ccc(NC(=O)c2ccc(CN3CC[C@H](N(C)C)C3)c(C(F)(F)F)c2)cc1Nc1nccc(-c2cncnc2)n1 [bafetinib]
Method in brief: as §1

[2] = compound: Cc1cccc(CC(=O)N2CCc3c2ccc(-c2cn(C)c4ncnc(N)c24)c3F)n1
Method in brief: as §1

Target	log2 fold change (lapatinib)	log2 fold change (pictilisib)	log2 fold change (crizotinib)	log2 fold change [1]	log2 fold change (duvelisib)	log2 fold change (gandotinib)	log2 fold change (tozasertib)	log2 fold change (doramapimod)	log2 fold change (bafetinib)	log2 fold change [2]
FGF13 isoform 3 (UniProt Q92913)	inactive: -0.013	inactive: 0.008	inactive: 0.049	inactive: -0.037	inactive: 0.012	inactive: 0.062	inactive: 0.026	inactive: -0.009	inactive: 0.028	inactive: -0.159
FAR1 (UniProt Q8WVX9)	inactive: 0.06	inactive: 0.012	inactive: -0.112	inactive: -0.053	inactive: 0.111	inactive: 0.035	inactive: -0.007	inactive: 0.041	inactive: -0.136	inactive: 0.168
FAT3 isoform 1 (UniProt Q8TDW7)	inactive: -0.011	inactive: -0.05	inactive: -0.035	inactive: 0.127	inactive: -0.063	inactive: -0.117	inactive: -0.011	inactive: -0.001	inactive: -0.025	inactive: -0.172
FOPNL (UniProt Q96NB1)	inactive: 0.107	inactive: -0.077	inactive: 0.027	inactive: 0.023	inactive: 0.083	inactive: 0.013	inactive: 0.055	inactive: -0.073	inactive: -0.07	inactive: -0.084
FBLL1 (UniProt A6NHQ2)	inactive: 0.014	inactive: -0.076	inactive: -0.041	active: -0.277	inactive: 0.059	inactive: 0.028	inactive: 0.047	inactive: -0.013	inactive: -0.075	inactive: 0.053
FDPS (UniProt P14324)	inactive: -0.015	inactive: 0.008	inactive: -0.085	inactive: -0.034	inactive: 0.008	inactive: -0.023	inactive: 0	inactive: -0.021	inactive: -0.035	inactive: 0.059
FARS2 (UniProt O95363)	inactive: -0.268	inactive: -0.099	inactive: 0.017	inactive: -0.031	–	inactive: 0.03	inactive: -0.042	inactive: 0.129	inactive: 0.023	inactive: 0.066
FIP1L1 isoform 3 (UniProt Q6UN15)	inactive: -0.398	–	inactive: 0.042	–	–	–	inactive: -0.093	inactive: 0.103	–	–
FLT4 (UniProt P35916)	inactive: -0.007	inactive: 0.057	–	inactive: -0.173	inactive: 0.026	inactive: 0.019	inactive: -0.056	–	inactive: -0.035	inactive: -0.041
FMNL2 isoform 3 (UniProt Q96PY5)	inactive: -0.077	–	inactive: -0.17	–	inactive: -0.085	–	–	inactive: 0.091	–	–
FBXO44 isoform 2 (UniProt Q9H4M3)	inactive: -0.006	inactive: -0.337	–	inactive: -0.043	inactive: 0	inactive: 0.012	–	–	inactive: 0.113	inactive: 0.137
FANCE (UniProt Q9HB96)	inactive: 0.087	–	inactive: -0.059	inactive: -0.129	inactive: 0.029	inactive: -0.314	–	inactive: -0.046	–	inactive: 0.067
FIZ1 (UniProt Q96SL8)	inactive: 0.191	inactive: 0.049	–	inactive: 0.042	–	inactive: -0.14	–	–	inactive: 0.033	inactive: 0.273
FAXDC2 (UniProt Q96IV6)	inactive: 0.04	–	inactive: -0.016	inactive: 0.004	inactive: -0.034	inactive: -0.033	inactive: 0.098	inactive: 0.014	–	inactive: 0.201
FCGR2A (UniProt P12318)	inactive: 0.004	inactive: -0.004	inactive: 0.039	inactive: -0.038	inactive: 0.01	inactive: 0.046	inactive: 0.019	inactive: -0.011	inactive: -0.014	inactive: 0.017
FMR1 isoform 9 (UniProt Q06787)	inactive: 0.018	inactive: -0.209	inactive: -0.001	–	inactive: 0.065	–	–	inactive: -0.107	inactive: 0.532	–
FARP2 (UniProt O94887)	inactive: 0.031	inactive: -0.208	inactive: -0.026	inactive: -0.371	inactive: 0	inactive: -0.271	–	inactive: -0.088	inactive: -0.041	inactive: 0.118
FBXL20 (UniProt Q96IG2)	inactive: 0.001	inactive: -0.037	inactive: -0.028	inactive: 0	inactive: 0.021	inactive: -0.04	inactive: -0.005	inactive: 0.024	inactive: -0.082	inactive: 0.015
FOSL1 (UniProt P15407)	inactive: 0.027	–	inactive: 0.161	inactive: -0.145	inactive: -0.191	inactive: 0.164	–	inactive: -0.002	–	inactive: 0.082

Target	log2 fold change (lapatinib)	log2 fold change (pictilisib)	log2 fold change (crizotinib)	log2 fold change [1]	log2 fold change (duvelisib)	log2 fold change (gandotinib)	log2 fold change (tozasertib)	log2 fold change (doramapimod)	log2 fold change (bafetinib)	log2 fold change [2]
FAT1 (UniProt Q14517)	inactive: -0.129	–	inactive: -0.109	inactive: 0.079	–	inactive: 0.027	inactive: -0.139	inactive: 0.475	–	inactive: 0.072
FAM83H (UniProt Q6ZRV2)	inactive: 0.048	–	–	inactive: -0.153	–	inactive: 0.056	inactive: 0.097	–	–	inactive: 0.12
FKRP (UniProt Q9H9S5)	inactive: -0.001	–	inactive: -0.074	inactive: -0.278	inactive: 0.105	inactive: 0.107	inactive: 0.001	inactive: -0.052	–	inactive: 0.107
FMNL3 (UniProt Q8IVF7)	inactive: 0.073	inactive: 0.105	–	–	–	–	–	–	inactive: -0.15	–
FCHO2 (UniProt Q0JRZ9)	inactive: -0.009	inactive: -0.039	inactive: -0.017	inactive: 0.029	inactive: 0.018	inactive: -0.055	inactive: -0.004	inactive: 0.059	inactive: 0.037	inactive: -0.006
FASN (UniProt P49327)	inactive: -0.008	inactive: 0.003	inactive: -0.013	inactive: -0.02	inactive: -0.007	inactive: -0.019	inactive: 0.025	inactive: 0.025	inactive: 0	inactive: 0.033
FARSB (UniProt Q9NSD9)	inactive: 0.003	inactive: -0.014	inactive: -0.033	inactive: 0.007	inactive: 0.021	inactive: -0.053	inactive: -0.014	inactive: 0.033	inactive: -0.005	inactive: -0.001
FAM86B2 (UniProt P0C5J1)	inactive: 0.058	inactive: -0.017	–	–	–	–	–	–	inactive: -0.105	–
FBXO11 isoform 5 (UniProt Q86XK2)	inactive: 0.108	inactive: -0.173	inactive: -0.003	inactive: -0.015	inactive: -0.086	inactive: -0.04	–	inactive: -0.013	inactive: 0.136	inactive: -0.017
FBXO9 (UniProt Q9UK97)	inactive: -0.334	inactive: -0.107	inactive: -0.023	inactive: 0.08	inactive: -0.012	inactive: -0.141	inactive: 0.041	inactive: 0.044	inactive: 0	inactive: -0.104
FAT2 (UniProt Q9NYQ8)	inactive: -0.027	inactive: -0.015	inactive: -0.512	inactive: -0.366	–	inactive: 0.182	inactive: 0.055	inactive: -0.094	inactive: -0.244	inactive: 0.407
FBXO46 (UniProt Q6PJ61)	inactive: -0.198	inactive: 0.02	inactive: -0.01	inactive: -0.327	inactive: -0.015	inactive: 0.01	inactive: -0.074	inactive: 0.073	inactive: -0.043	inactive: -0.002
FKBP5 (UniProt Q13451)	inactive: -0.023	inactive: 0.005	inactive: -0.008	inactive: 0.01	inactive: 0.014	inactive: -0.053	inactive: -0.001	inactive: 0.017	inactive: -0.028	inactive: 0
FITM2 (UniProt Q8N6M3)	inactive: -0.06	inactive: -0.005	–	–	–	–	–	–	inactive: -0.144	–
FBXO6 (UniProt Q9NRD1)	inactive: -0.002	inactive: -0.024	inactive: 0.028	inactive: 0.019	inactive: -0.012	inactive: -0.043	inactive: -0.035	inactive: 0.001	inactive: -0.008	inactive: -0.01
FBXW8 (UniProt Q8N3Y1)	inactive: 0.031	inactive: 0.087	–	–	–	–	inactive: -0.036	–	inactive: 0.126	–
FER isoform 3 (UniProt P16591)	inactive: 0.004	–	inactive: 0.406	inactive: 0.096	–	inactive: 0.496	–	inactive: -0.013	–	inactive: -0.014
FANCC (UniProt Q00597)	inactive: -0.101	–	inactive: 0.104	–	–	–	–	inactive: -0.04	–	–

Some of the entries so far, in markdown:

| Target | log2 fold change (lapatinib) | log2 fold change (pictilisib) | log2 fold change (crizotinib) | log2 fold change [1] | log2 fold change (duvelisib) | log2 fold change (gandotinib) | log2 fold change (tozasertib) | log2 fold change (doramapimod) | log2 fold change (bafetinib) | log2 fold change [2] |
| --- | --- | --- | --- | --- | --- | --- | --- | --- | --- | --- |
| FKRP (UniProt Q9H9S5) | inactive: -0.001 | – | inactive: -0.074 | inactive: -0.278 | inactive: 0.105 | inactive: 0.107 | inactive: 0.001 | inactive: -0.052 | – | inactive: 0.107 |
| FMNL3 (UniProt Q8IVF7) | inactive: 0.073 | inactive: 0.105 | – | – | – | – | – | – | inactive: -0.15 | – |
